# No constants are given. Whether binding was seen depends on the method and setting. In cells and extracts the contact can be indirect. These calls come from enrichment with a bait or labelling near it, and not all partners need be listed.
# Chains of the proteins cited; added tags and fusions are not shown.
# UniProt Q9H4L4: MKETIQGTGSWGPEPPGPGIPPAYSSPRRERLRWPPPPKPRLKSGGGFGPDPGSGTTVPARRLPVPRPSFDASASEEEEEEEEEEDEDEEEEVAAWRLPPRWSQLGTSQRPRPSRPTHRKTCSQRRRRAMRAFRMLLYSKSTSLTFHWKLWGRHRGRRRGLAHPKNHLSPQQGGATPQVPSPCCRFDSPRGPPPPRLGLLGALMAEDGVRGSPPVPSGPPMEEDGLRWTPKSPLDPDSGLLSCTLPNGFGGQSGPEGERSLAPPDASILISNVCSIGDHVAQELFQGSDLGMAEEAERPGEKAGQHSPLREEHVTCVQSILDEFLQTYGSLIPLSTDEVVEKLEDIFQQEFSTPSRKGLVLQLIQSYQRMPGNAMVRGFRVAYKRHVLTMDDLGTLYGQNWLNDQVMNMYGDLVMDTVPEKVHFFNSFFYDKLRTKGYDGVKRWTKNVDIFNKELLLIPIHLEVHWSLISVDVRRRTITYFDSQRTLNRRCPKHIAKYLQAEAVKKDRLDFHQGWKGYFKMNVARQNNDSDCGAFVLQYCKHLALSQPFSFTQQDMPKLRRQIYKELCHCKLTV
# Target: FLAG-SENP3 (UniProt Q9H4L4)
# Assay: affinity purification with mass spectrometry; 293T cells transfected with vector FLAG-pcDNA or FLAG-SENP3; co-IP with anti-FLAG antibody; gel silver stained, bands of approximately 100 kDa examined by MS; Table 1 lists the hits that were also increased in lysate of SENP3-transfected cells
row,binding,Binder
1,binds,"ZC3H14 (protein, UniProt Q6PJT7 1-736) MEIGTEISRKIRSAIKGKLQELGAYVDEELPDYIMVMVANKKSQDQMTEDLSLFLGNNTIRFTVWLHGVLDKLRSVTTEPSSLKSSDTNIFDSNVPSNKSNFSRGDERRHEAAVPPLAIPSARPEKRDSRVSTSSQESKTTNVRQTYDDGAATRLMSTVKPLREPAPSEDVIDIKPEPDDLIDEDLNFVQENPLSQKKPTVTLTYGSSRPSIEIYRPPASRNADSGVHLNRLQFQQQQNSIHAAKQLDMQSSWVYETGRLCEPEVLNSLEETYSPFFRNNSEKMSMEDENFRKRKLPVVSSVVKVKKFNHDGEEEEEDDDYGSRTGSISSSVSVPAKPERRPSLPPSKQANKNLILKAISEAQESVTKTTNYSTVPQKQTLPVAPRTRTSQEELLAEVVQGQSRTPRISPPIKEEETKGDSVEKNQGTQQRQLLSRLQIDPVMAETLQMSQDYYDMESMVHADTRSFILKKPKLSEEVVVAPNQESGMKTADSLRVLSGHLMQTRDLVQPDKPASPKFIVTLDGVPSPPGYMSDQEEDMCFEGMKPVNQTAASNKGLRGLLHPQQLHLLSRQLEDPNGSFSNAEMSELSVAQKPEKLLERCKYWPACKNGDECAYHHPISPCKAFPNCKFAEKCLFVHPNCKYDAKCTKPDCPFTHVSRRIPVLSPKPAVAPPAPPSSSQLCRYFPACKKMECPFYHPKHCRFNTQCTRPDCTFYHPTINVPPRHALKWIRPQTSE"
2,binds,"RRP1B (protein, UniProt Q14684 1-758) MAPAMQPAEIQFAQRLASSEKGIRDRAVKKLRQYISVKTQRETGGFSQEELLKIWKGLFYCMWVQDEPLLQEELANTIAQLVHAVNNSAAQHLFIQTFWQTMNREWKGIDRLRLDKYYMLIRLVLRQSFEVLKRNGWEESRIKVFLDVLMKEVLCPESQSPNGVRFHFIDIYLDELSKVGGKELLADQNLKFIDPFCKIAAKTKDHTLVQTIARGVFEAIVDQSPFVPEETMEEQKTKVGDGDLSAEEIPENEVSLRRAVSKKKTALGKNHSRKDGLSDERGRDDCGTFEDTGPLLQFDYKAVADRLLEMTSRKNTPHFNRKRLSKLIKKFQDLSEGSSISQLSFAEDISADEDDQILSQGKHKKKGNKLLEKTNLEKEKGSRVFCVEEEDSESSLQKRRRKKKKKHHLQPENPGPGGAAPSLEQNRGREPEASGLKALKARVAEPGAEATSSTGEESGSEHPPAVPMHNKRKRPRKKSPRAHREMLESAVLPPEDMSQSGPSGSHPQGPRGSPTGGAQLLKRKRKLGVVPVNGSGLSTPAWPPLQQEGPPTGPAEGANSHTTLPQRRRLQKKKAGPGSLELCGLPSQKTASLKKRKKMRVMSNLVEHNGVLESEAGQPQALGSSGTCSSLKKQKLRAESDFVKFDTPFLPKPLFFRRAKSSTATHPPGPAVQLNKTPSSSKKVTFGLNRNMTAEFKKTDKSILVSPTGPSRVAFDPEQKPLHGVLKTPTSSPASSPLVAKKPLTTTPRRRPRAMDFF"
3,binds,"PYGL (protein, UniProt P06737 1-847) MAKPLTDQEKRRQISIRGIVGVENVAELKKSFNRHLHFTLVKDRNVATTRDYYFALAHTVRDHLVGRWIRTQQHYYDKCPKRVYYLSLEFYMGRTLQNTMINLGLQNACDEAIYQLGLDIEELEEIEEDAGLGNGGLGRLAACFLDSMATLGLAAYGYGIRYEYGIFNQKIRDGWQVEEADDWLRYGNPWEKSRPEFMLPVHFYGKVEHTNTGTKWIDTQVVLALPYDTPVPGYMNNTVNTMRLWSARAPNDFNLRDFNVGDYIQAVLDRNLAENISRVLYPNDNFFEGKELRLKQEYFVVAATLQDIIRRFKASKFGSTRGAGTVFDAFPDQVAIQLNDTHPALAIPELMRIFVDIEKLPWSKAWELTQKTFAYTNHTVLPEALERWPVDLVEKLLPRHLEIIYEINQKHLDRIVALFPKDVDRLRRMSLIEEEGSKRINMAHLCIVGSHAVNGVAKIHSDIVKTKVFKDFSELEPDKFQNKTNGITPRRWLLLCNPGLAELIAEKIGEDYVKDLSQLTKLHSFLGDDVFLRELAKVKQENKLKFSQFLETEYKVKINPSSMFDVQVKRIHEYKRQLLNCLHVITMYNRIKKDPKKLFVPRTVIIGGKAAPGYHMAKMIIKLITSVADVVNNDPMVGSKLKVIFLENYRVSLAEKVIPATDLSEQISTAGTEASGTGNMKFMLNGALTIGTMDGANVEMAEEAGEENLFIFGMRIDDVAALDKKGYEAKEYYEALPELKLVIDQIDNGFFSPKQPDLFKDIINMLFYHDRFKVFADYEAYVKCQDKVSQLYMNPKAWNTMVLKNIAASGKFSSDRTIKEYAQNIWNVEPSDLKISLSNESNKVNGN"

# The next lines start with the binder.
row,Binder,binding
1,"COPG2 (protein, UniProt Q9UBF2 1-871) MIKKFDKKDEESGSGSNPFQHLEKSAVLQEARIFNETPINPRRCLHILTKILYLLNQGEHFGTTEATEAFFAMTRLFQSNDQTLRRMCYLTIKEMATISEDVIIVTSSLTKDMTGKEDVYRGPAIRALCRITDGTMLQAIERYMKQAIVDKVSSVSSSALVSSLHMMKISYDVVKRWINEAQEAASSDNIMVQYHALGVLYHLRKNDRLAVSKMLNKFTKSGLKSQFAYCMLIRIASRLLKETEDGHESPLFDFIESCLRNKHEMVIYEAASAIIHLPNCTARELAPAVSVLQLFCSSPKPALRYAAVRTLNKVAMKHPSAVTACNLDLENLITDSNRSIATLAITTLLKTGSESSVDRLMKQISSFVSEISDEFKVVVVQAISALCQKYPRKHSVMMTFLSNMLRDDGGFEYKRAIVDCIISIVEENPESKEAGLAHLCEFIEDCEHTVLATKILHLLGKEGPRTPVPSKYIRFIFNRVVLENEAVRAAAVSALAKFGAQNESLLPSILVLLQRCMMDTDDEVRDRATFYLNVLQQRQMALNATYIFNGLTVSVPGMEKALHQYTLEPSEKPFDMKSIPLAMAPVFEQKAEITLVATKPEKLAPSRQDIFQEQLAAIPEFLNIGPLFKSSEPVQLTEAETEYFVRCIKHMFTNHIVFQFDCTNTLNDQLLEKVTVQMEPSDSYEVLSCIPAPSLPYNQPGICYTLVRLPDDDPTAVAGSFSCTMKFTVRDCDPNTGVPDEDGYDDEYVLEDLEVTVSDHIQKVLKPNFAAAWEEVGDTFEKEETFALSSTKTLEEAVNNIITFLGMQPCERSDKVPENKNSHSLYLAGIFRGGYDLLVRSRLALADGVTMQVTVRSKERTPVDVILASVG",binds
2,"LAS1L (protein, UniProt Q9Y4W2 1-734) MSWESGAGPGLGSQGMDLVWSAWYGKCVKGKGSLPLSAHGIVVAWLSRAEWDQVTVYLFCDDHKLQRYALNRITVWRSRSGNELPLAVASTADLIRCKLLDVTGGLGTDELRLLYGMALVRFVNLISERKTKFAKVPLKCLAQEVNIPDWIVDLRHELTHKKMPHINDCRRGCYFVLDWLQKTYWCRQLENSLRETWELEEFREGIEEEDQEEDKNIVVDDITEQKPEPQDDGKSTESDVKADGDSKGSEEVDSHCKKALSHKELYERARELLVSYEEEQFTVLEKFRYLPKAIKAWNNPSPRVECVLAELKGVTCENREAVLDAFLDDGFLVPTFEQLAALQIEYEDGQTEVQRGEGTDPKSHKNVDLNDVLVPKPFSQFWQPLLRGLHSQNFTQALLERMLSELPALGISGIRPTYILRWTVELIVANTKTGRNARRFSAGQWEARRGWRLFNCSASLDWPRMVESCLGSPCWASPQLLRIIFKAMGQGLPDEEQEKLLRICSIYTQSGENSLVQEGSEASPIGKSPYTLDSLYWSVKPASSSFGSEAKAQQQEEQGSVNDVKEEEKEEKEVLPDQVEEEEENDDQEEEEEDEDDEDDEEEDRMEVGPFSTGQESPTAENARLLAQKRGALQGSAWQVSSEDVRWDTFPLGRMPGQTEDPAELMLENYDTMYLLDQPVLEQRLEPSTCKTDTLGLSCGVGSGNCSNSSSSNFEGLLWSQGQLHGLKTGLQLF",binds
3,"MCM5 (protein, UniProt P33992 1-734) MSGFDDPGIFYSDSFGGDAQADEGQARKSQLQRRFKEFLRQYRVGTDRTGFTFKYRDELKRHYNLGEYWIEVEMEDLASFDEDLADYLYKQPAEHLQLLEEAAKEVADEVTRPRPSGEEVLQDIQVMLKSDASPSSIRSLKSDMMSHLVKIPGIIIAASAVRAKATRISIQCRSCRNTLTNIAMRPGLEGYALPRKCNTDQAGRPKCPLDPYFIMPDKCKCVDFQTLKLQELPDAVPHGEMPRHMQLYCDRYLCDKVVPGNRVTIMGIYSIKKFGLTTSRGRDRVGVGIRSSYIRVLGIQVDTDGSGRSFAGAVSPQEEEEFRRLAALPNVYEVISKSIAPSIFGGTDMKKAIACLLFGGSRKRLPDGLTRRGDINLLMLGDPGTAKSQLLKFVEKCSPIGVYTSGKGSSAAGLTASVMRDPSSRNFIMEGGAMVLADGGVVCIDEFDKMREDDRVAIHEAMEQQTISIAKAGITTTLNSRCSVLAAANSVFGRWDETKGEDNIDFMPTILSRFDMIFIVKDEHNEERDVMLAKHVITLHVSALTQTQAVEGEIDLAKLKKFIAYCRVKCGPRLSAEAAEKLKNRYIIMRSGARQHERDSDRRSSIPITVRQLEAIVRIAEALSKMKLQPFATEADVEEALRLFQVSTLDAALSGTLSGVEGFTSQEDQEMLSRIEKQLKRRFAIGSQVSEHSIIKDFTKQKYPEHAIHKVLQLMLRRGEIQHRMQRKVLYRLK",binds
4,"PYGB (protein, UniProt P11216 1-843) MAKPLTDSEKRKQISVRGLAGLGDVAEVRKSFNRHLHFTLVKDRNVATPRDYFFALAHTVRDHLVGRWIRTQQHYYERDPKRIYYLSLEFYMGRTLQNTMVNLGLQNACDEAIYQLGLDLEELEEIEEDAGLGNGGLGRLAACFLDSMATLGLAAYGYGIRYEFGIFNQKIVNGWQVEEADDWLRYGNPWEKARPEYMLPVHFYGRVEHTPDGVKWLDTQVVLAMPYDTPVPGYKNNTVNTMRLWSAKAPNDFKLQDFNVGDYIEAVLDRNLAENISRVLYPNDNFFEGKELRLKQEYFVVAATLQDIIRRFKSSKFGCRDPVRTCFETFPDKVAIQLNDTHPALSIPELMRILVDVEKVDWDKAWEITKKTCAYTNHTVLPEALERWPVSMFEKLLPRHLEIIYAINQRHLDHVAALFPGDVDRLRRMSVIEEGDCKRINMAHLCVIGSHAVNGVARIHSEIVKQSVFKDFYELEPEKFQNKTNGITPRRWLLLCNPGLADTIVEKIGEEFLTDLSQLKKLLPLVSDEVFIRDVAKVKQENKLKFSAFLEKEYKVKINPSSMFDVHVKRIHEYKRQLLNCLHVVTLYNRIKRDPAKAFVPRTVMIGGKAAPGYHMAKLIIKLVTSIGDVVNHDPVVGDRLKVIFLENYRVSLAEKVIPAADLSQQISTAGTEASGTGNMKFMLNGALTIGTMDGANVEMAEEAGAENLFIFGLRVEDVEALDRKGYNAREYYDHLPELKQAVDQISSGFFSPKEPDCFKDIVNMLMHHDRFKVFADYEAYMQCQAQVDQLYRNPKEWTKKVIRNIACSGKFSSDRTITEYAREIWGVEPSDLQIPPPNIPRD",binds

# From article PMC4707158
